# Measured values reported in patent US20080004355A1, “Method for Inhibiting Telomerase Activity and an Agent for Inhibiting the Same” (priority 2004, published 2008).
# Sequences of proteins named here, by UniProt entry; tags and fusion partners are left off. A change or cut given only in a name is not applied to a line headed by its entry.
# UniProt O14746: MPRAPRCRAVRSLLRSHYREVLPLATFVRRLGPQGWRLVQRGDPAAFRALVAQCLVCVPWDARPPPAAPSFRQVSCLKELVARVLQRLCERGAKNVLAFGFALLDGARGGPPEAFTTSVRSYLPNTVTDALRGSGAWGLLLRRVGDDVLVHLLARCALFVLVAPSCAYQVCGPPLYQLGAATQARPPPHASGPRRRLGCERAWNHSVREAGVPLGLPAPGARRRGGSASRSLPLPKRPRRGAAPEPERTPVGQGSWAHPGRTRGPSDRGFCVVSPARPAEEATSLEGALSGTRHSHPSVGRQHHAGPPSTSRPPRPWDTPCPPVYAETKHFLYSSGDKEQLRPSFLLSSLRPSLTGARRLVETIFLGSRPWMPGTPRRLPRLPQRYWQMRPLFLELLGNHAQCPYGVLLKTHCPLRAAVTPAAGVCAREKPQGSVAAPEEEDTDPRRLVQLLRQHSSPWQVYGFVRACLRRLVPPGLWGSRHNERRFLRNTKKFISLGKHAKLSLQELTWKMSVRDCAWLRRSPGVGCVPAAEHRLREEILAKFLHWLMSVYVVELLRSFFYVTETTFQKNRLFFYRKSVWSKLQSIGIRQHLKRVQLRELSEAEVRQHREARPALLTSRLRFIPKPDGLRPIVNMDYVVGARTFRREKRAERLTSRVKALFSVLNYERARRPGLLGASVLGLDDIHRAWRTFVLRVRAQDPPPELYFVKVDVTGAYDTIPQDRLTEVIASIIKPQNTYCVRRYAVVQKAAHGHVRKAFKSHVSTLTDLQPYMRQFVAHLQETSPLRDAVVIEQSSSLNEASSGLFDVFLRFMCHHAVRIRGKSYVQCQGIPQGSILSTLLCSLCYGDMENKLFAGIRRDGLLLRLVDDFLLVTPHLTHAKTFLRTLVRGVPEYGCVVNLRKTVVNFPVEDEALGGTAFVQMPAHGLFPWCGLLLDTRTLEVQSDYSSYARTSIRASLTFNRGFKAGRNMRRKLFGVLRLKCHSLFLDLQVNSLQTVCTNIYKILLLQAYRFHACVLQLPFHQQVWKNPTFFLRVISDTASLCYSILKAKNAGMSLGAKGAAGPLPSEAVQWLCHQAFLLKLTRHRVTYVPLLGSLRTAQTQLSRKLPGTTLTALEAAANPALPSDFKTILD
# UniProt Q15843: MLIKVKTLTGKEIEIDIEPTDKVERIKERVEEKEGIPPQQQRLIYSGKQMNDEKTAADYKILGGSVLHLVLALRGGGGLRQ
# No constants are given. Whether binding was seen depends on the method and setting. Some entries that bind do so weakly or less than the wild type.
# Assays:
# [1] = target: TERT (telomerase reverse transcriptase, telomerase catalytic subunit) (human) (UniProt O14746); test: co-expression in cultured cells, immunoprecipitation with anti-TERT, Western blot with anti-FLAG (FIG. 5, lane 3); covalent conjugation
# [2] = target: TERT (telomerase reverse transcriptase, telomerase catalytic subunit) (human) (UniProt O14746); test: co-expression in HEK293T cells, RIPA lysate, immunoprecipitation with anti-TERT (L-21), Western blot with anti-FLAG; covalent conjugation
# [3] = target: N-terminal FLAG-tagged TERT (human) (UniProt O14746); test: co-expression in HEK293T cells, immunoprecipitation with anti-HA agarose, Western blot with anti-FLAG; signal taken to be covalent NEDD8 conjugate
# [4] = target: N-terminal FLAG-tagged TERT (human) (UniProt O14746); test: co-expression in cultured cells, immunoprecipitation with anti-HA, Western blot with anti-FLAG (FIG. 4)
# [5] = target: N-terminal FLAG-tagged TERT (human) (UniProt O14746); test: co-expression in HEK293T cells, immunoprecipitation with anti-HA agarose, Western blot with anti-FLAG
binding [1],binding [2],binding [3],binding [4],binding [5],Substance
binds,binds,–,–,–,N-terminal FLAG-tagged NEDD8 (from UniProt Q15843 1-76)
–,–,binds,binds,binds,N-terminal HA-tagged NEDD8 (from UniProt Q15843 1-76)
